Source: article doi:10.1101/697953
No constants are given. Whether binding was seen depends on the method and setting. Some entries that bind do so weakly or less than the wild type.

Target: full-length chlamydial MreB (Chlamydia trachomatis serovar L2) (UniProt O84715)
Experiment: two-hybrid

In the case of “ΔN22 chlamydial MreB (from UniProt O84715 23-366) (domain or fragment)”, the binding is reported as “binds”.
